Some of these results come from one statement about several compounds together. Some compounds share one range, which may span the group rather than tell each member.
How the values were obtained:
[1] = biological target: T1, PHFs from htau23 (Homo sapiens, UniProt P10636); test: Thioflavine S assay, depolymerisation of pre-formed PHFs, htau23; type: biochemical; details: ThS fluorescence
T1 construct: made in house; host or cells: E. coli
Experimental: The ThS assay was used to analyse the ability of the five compounds (see Example 4) to depolymerise pre-formed PHFs made from the repeat domain constructs K19 and K18 as well as from isoforms htau23 and htau24, containing 3 or 4 repeats, respectively.
PHFs assembled from the full length three repeat isoform htau23 were also sensitive to disaggregation (FIG. 4C). The DC50 values ranged from 7.0 to 60 μM.
Tau constructs and isoforms K19, K18, hTau23, hTau24 (10 μM) were first aggregated into PHFs for 48 hours in the presence of 2.5 μM heparin (except K18/ΔK280) and the polymers separated from the soluble tau by centrifugation of 1 h at 100,000 g, redissolved and then exposed to the inhibitors overnight at 37° C. at the indicated concentrations (range 0.001-200 μM).

Protein sequences, listed by entry. Tags and fused reporters are not part of them. Chains listed by the source or under a name are the forms on record and can include a tag or linker. Residues count along the entry.
UniProt P10636, 1-352 isoform P10636-2: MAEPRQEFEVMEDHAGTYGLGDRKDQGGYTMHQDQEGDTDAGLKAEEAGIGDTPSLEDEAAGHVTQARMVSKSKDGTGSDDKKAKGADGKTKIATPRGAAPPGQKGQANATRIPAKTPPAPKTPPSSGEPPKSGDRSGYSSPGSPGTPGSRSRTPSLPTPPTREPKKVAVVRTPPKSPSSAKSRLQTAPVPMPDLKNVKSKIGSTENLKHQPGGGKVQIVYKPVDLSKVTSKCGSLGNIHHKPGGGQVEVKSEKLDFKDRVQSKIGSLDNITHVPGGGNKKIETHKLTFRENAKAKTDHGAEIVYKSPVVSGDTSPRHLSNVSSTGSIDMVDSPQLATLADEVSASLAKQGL
UniProt P10636, with tags, fused parts or gaps isoform P10636-2 limits assumed: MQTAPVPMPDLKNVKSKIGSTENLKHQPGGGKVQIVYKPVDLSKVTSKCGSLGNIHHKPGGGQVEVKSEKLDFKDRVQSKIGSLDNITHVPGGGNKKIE

[2] = biological target: T2, K19 PHFs (Homo sapiens, UniProt P10636); test: Depolymerisation of K19 PHFs at prolonged incubation times; type: biochemical; details: 0.5 μM compound, after 28 days
T2 construct: construct K19 containing three repeats; made in house; host or cells: E. coli
Experimental: Untreated controls were measured in parallel and subtracted as background.

Which DC50 ([1]; listed as daunorubicin) does the source give for `COc1cccc2c1C(=O)c1c(O)c3c(c(O)c1C2=O)CC(O)(C(C)=O)CC3OC1CC(N)C(O)C(C)O1` (stereo not drawn) [Daunorubicin, 8-Acetyl-10-(4-amino-5-hydroxy-6-methyl-tetrahydro-pyran-2-yloxy)-6,8,11-trihydroxy-1-methoxy-7,8,9,10-tetrahydro-naphthacene-5,12-dione, reference compound] here?
Its DC50 is 7 to 13.2 µM.

For `Cc1cc(O)c2c(c1)C(=O)c1cc(O)cc(O)c1C2=O` [Emodin, 1,3,8-Trihydroxy-6-methyl-anthraquinone], which DC50 [1] is on record?
The DC50 was 7 to 13.2 µM.

Which “final depolymerisation of K19 PHFs” value [2] does the source give for `O=C(c1ccccc1)c1ccc(O)c(O)c1O` [PHF005, 1-Phenyl-1-(2,3,4-trihydroxy-phenyl)-methanone] here?
The value was 20-30%.
